Laboratory results taken from PMC7265490.
Results are given in words; binding and its absence hold for the method and conditions named. Binding seen in cells or lysates may run through a third protein. Some entries that bind do so weakly or less than the wild type.

Sequences of proteins named here, by UniProt entry; tags and fusion partners are left off. A change or cut given only in a name is not applied to a line headed by its entry.
UniProt Q5TAX3: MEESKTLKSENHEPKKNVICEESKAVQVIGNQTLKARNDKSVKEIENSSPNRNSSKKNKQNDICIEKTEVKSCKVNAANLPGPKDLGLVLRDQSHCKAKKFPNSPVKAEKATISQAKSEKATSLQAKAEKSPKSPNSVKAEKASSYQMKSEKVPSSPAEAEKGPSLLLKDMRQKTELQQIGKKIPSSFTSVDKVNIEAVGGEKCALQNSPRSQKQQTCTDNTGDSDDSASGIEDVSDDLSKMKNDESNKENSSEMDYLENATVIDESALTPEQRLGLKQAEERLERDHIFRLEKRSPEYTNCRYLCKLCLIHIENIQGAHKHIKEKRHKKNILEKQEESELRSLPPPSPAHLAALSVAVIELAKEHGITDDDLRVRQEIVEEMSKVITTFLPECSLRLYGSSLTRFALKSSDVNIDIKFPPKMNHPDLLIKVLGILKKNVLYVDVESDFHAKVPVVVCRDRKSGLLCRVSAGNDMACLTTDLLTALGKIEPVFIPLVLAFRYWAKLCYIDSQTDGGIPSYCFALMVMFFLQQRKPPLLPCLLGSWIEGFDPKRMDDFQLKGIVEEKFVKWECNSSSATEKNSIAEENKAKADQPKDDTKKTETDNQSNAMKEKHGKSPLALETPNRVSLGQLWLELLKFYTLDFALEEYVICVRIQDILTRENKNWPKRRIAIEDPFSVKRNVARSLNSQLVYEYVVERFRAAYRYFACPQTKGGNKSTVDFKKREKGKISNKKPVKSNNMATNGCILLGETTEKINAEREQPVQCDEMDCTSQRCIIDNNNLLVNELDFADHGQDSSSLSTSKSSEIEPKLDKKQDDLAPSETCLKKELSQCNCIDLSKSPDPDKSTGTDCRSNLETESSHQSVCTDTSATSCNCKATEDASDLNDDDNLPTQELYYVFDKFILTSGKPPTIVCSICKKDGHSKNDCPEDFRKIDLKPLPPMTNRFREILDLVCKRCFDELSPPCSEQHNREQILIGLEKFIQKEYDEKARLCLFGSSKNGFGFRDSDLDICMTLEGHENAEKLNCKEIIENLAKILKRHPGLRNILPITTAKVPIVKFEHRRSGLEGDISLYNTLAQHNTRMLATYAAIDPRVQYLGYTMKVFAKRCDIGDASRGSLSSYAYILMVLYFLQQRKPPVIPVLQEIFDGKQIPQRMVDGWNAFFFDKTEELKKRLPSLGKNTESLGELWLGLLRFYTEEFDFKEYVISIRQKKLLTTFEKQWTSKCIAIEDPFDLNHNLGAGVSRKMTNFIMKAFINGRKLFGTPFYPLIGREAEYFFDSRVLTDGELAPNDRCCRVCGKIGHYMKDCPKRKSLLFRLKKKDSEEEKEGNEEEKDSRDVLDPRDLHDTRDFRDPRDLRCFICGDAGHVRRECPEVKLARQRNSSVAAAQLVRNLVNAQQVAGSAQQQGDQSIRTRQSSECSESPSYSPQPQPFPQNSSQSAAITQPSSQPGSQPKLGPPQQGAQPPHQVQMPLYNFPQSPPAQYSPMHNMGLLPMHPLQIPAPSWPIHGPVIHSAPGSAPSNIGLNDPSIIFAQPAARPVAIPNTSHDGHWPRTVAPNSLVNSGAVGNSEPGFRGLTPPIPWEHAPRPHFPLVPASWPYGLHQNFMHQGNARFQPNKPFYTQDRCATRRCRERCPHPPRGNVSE
UniProt Q9UKV8: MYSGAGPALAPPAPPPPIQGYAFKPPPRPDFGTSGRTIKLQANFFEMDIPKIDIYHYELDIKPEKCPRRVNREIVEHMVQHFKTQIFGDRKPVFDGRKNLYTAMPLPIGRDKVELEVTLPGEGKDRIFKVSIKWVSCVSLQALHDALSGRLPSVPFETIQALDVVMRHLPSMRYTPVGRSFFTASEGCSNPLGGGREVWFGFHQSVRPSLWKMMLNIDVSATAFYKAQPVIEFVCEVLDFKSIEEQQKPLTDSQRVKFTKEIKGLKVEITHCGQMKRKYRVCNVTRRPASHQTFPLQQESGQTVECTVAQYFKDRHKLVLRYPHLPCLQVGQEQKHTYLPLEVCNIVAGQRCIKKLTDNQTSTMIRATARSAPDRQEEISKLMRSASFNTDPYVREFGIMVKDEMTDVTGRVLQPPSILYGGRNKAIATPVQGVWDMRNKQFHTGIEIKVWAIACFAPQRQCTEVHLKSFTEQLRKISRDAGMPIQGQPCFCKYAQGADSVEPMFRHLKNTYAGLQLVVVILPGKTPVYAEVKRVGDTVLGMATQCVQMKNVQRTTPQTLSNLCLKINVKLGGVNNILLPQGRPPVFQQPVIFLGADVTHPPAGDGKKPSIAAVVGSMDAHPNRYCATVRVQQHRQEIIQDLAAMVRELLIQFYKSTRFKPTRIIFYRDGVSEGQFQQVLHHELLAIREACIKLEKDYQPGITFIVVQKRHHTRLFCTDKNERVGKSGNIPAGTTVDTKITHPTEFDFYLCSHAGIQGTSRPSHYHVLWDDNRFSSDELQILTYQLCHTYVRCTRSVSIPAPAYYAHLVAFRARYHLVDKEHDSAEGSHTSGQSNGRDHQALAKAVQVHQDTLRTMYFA

Assays:
[1] = molecular target: endogenous TUT4 (ZCCHC11/TENT3A/PAPD3) (human (endogenous in HEK293T)) (UniProt Q5TAX3); experiment: co-IP; endogenous TUT4 or TUT7 immunoprecipitated from HEK293T cells with anti-ZCCHC11 or anti-ZCCHC6, with or without RNase A/T1; Western blot for AGO1, AGO2, TUT4 and TUT7
[2] = molecular target: T1, endogenous TUT7 (ZCCHC6/TENT3B/PAPD6) (human (endogenous in HEK293T)) (UniProt Q5VYS8); experiment: as above
T1 sequence: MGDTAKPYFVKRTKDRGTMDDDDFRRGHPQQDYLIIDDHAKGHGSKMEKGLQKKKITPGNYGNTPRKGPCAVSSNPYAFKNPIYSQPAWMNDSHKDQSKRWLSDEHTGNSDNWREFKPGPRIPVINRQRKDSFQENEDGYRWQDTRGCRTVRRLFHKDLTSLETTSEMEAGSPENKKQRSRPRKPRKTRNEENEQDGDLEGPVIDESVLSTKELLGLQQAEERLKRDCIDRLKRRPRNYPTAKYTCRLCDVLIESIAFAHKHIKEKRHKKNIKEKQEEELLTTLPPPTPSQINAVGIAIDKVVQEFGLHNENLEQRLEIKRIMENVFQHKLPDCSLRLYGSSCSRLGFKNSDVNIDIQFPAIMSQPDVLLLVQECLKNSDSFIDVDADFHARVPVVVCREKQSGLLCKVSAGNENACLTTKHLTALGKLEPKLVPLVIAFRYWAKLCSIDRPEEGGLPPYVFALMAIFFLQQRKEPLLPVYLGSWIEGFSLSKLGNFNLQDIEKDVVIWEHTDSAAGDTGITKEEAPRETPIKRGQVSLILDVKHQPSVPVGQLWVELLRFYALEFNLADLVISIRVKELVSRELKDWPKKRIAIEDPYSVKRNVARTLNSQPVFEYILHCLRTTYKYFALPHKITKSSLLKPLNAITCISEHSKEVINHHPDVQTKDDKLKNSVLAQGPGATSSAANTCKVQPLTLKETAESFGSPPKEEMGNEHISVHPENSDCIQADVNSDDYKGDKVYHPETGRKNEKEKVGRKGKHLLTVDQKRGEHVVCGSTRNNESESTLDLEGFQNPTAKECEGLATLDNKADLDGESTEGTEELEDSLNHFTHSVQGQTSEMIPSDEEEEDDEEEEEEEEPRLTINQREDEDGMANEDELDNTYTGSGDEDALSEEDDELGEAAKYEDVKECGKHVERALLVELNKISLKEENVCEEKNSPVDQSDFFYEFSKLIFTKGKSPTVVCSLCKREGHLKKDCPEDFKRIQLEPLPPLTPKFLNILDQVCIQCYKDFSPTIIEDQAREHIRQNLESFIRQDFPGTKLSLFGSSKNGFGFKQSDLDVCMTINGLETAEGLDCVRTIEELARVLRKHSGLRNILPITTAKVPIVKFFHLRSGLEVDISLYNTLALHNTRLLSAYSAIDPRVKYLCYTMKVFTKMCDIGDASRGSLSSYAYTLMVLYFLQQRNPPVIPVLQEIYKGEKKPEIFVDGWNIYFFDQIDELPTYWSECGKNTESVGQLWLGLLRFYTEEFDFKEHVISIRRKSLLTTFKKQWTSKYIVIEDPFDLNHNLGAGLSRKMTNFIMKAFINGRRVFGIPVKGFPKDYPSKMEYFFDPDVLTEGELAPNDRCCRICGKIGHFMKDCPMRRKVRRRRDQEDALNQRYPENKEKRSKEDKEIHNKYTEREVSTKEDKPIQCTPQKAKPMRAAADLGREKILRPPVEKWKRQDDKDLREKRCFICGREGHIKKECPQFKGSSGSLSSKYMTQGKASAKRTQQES

[3] = molecular target: FLAG-tagged AGO2-F2L3 (AGO2 PAZ mutant, F294A and L339A) (UniProt Q9UKV8); experiment: co-IP; FLAG-tagged AGO2 constructs or GFP transfected into HEK293T; lysis in modRIPA buffer 48 h after transfection; anti-FLAG M2 magnetic beads, 4 °C overnight; washed five times with TBS; beads with or without RNase A/T1 (20 min, room temperature); Western blot for TUT4, TUT7 and AGO2
[4] = molecular target: FLAG-tagged AGO2-WT (wild-type Argonaute 2) (UniProt Q9UKV8); experiment: as above

binding [1] | binding [2] | binding [3] | binding [4] | Substance
no binding | binds |  |  | endogenous AGO1 (from UniProt Q9UL18 1-857)
no binding | binds |  |  | endogenous AGO2 (from UniProt Q9UKV8 1-859)
 |  | no binding | no binding | endogenous TUT4 (ZCCHC11/TENT3A/PAPD3) (from UniProt Q5TAX3 1-1644) (enzyme)
